Values from PubChem BioAssay AID504804 (Drosophila RNAi Screening Center, 2011).

Test: 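Fly genes whose loss lessens doxorubicin-driven cell death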 (primary screen)
Cells: Drosophila Kc cells
Knock-down reagent: long dsRNA against Drosophila genes, 0.5 µg dsRNA per well
Time to read-out: 96 h (48 h knock-down, then 48 h drug)
Treatment: doxorubicin 5 µg/ml for 48 h, added 48 h after dsRNA
Read-out: 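Viability measured as cellular ATP by luminescence after 48 h knock-down then 48 h doxorubicin at 5 µg/ml; unnormalised plate counts for each replicate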
Scale: raw ATP luminescence: higher = more viable cells, protection from doxorubicin
Hit rule: 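Active when both duplicate wells lie at least 2 SD above the plate mean and protection is confirmed by rescreening and independent dsRNAs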
The deposit covers about 19,000 reagents; below is an unselected part of those that have a named target and a result. Over the whole deposit, 47 (0.25%) got an active call. 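Signals are raw, not normalised; exact z-scores behind calls not deposited; actives needed confirmation, so some wells reaching 2 SD are inactive.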 Names joined by + are all predicted targets of the reagent. No sequences are given here.

For mEFTu1 [DRSC06959], what was measured?
raw ATP luminescence, replicate 1: 68943; raw ATP luminescence, replicate 2: 53137; activity call: inactive

What is on record for CG42656 [DRSC12472]?
raw ATP luminescence, replicate 1: 49110; raw ATP luminescence, replicate 2: 66330; activity call: inactive

What is on record for Sms [DRSC10408]?
raw ATP luminescence, replicate 1: 68193; raw ATP luminescence, replicate 2: 70130; activity call: inactive

With CG6144 [DRSC02934], what does the deposit list?
raw ATP luminescence, replicate 1: 2.01e5; raw ATP luminescence, replicate 2: 1.78e5; activity call: inactive

With CG5199 [DRSC11770], what was measured?
raw ATP luminescence, replicate 1: 68797; raw ATP luminescence, replicate 2: 65100; activity call: inactive

With CG10912 [DRSC06009], what does the deposit list?
raw ATP luminescence, replicate 1: 57827; raw ATP luminescence, replicate 2: 51453; activity call: inactive

For ttm3 [DRSC03736], what was measured?
raw ATP luminescence, replicate 1: 54733; raw ATP luminescence, replicate 2: 58407; activity call: inactive

With Ace [DRSC12959], what was measured?
raw ATP luminescence, replicate 1: 1.47e5; raw ATP luminescence, replicate 2: 1.39e5; activity call: inactive

For Ace [DRSC14100], what was measured?
raw ATP luminescence, replicate 1: 44370; raw ATP luminescence, replicate 2: 21127; activity call: inactive

How did the screen score Loxl1 [DRSC14303]?
raw ATP luminescence, replicate 1: 48150; raw ATP luminescence, replicate 2: 56570; activity call: inactive

How did the screen score CG11698 [DRSC14355]?
raw ATP luminescence, replicate 1: 1.75e5; raw ATP luminescence, replicate 2: 2.19e5; activity call: inactive

How did the screen score GluRIIC [DRSC00642]?
raw ATP luminescence, replicate 1: 1.08e5; raw ATP luminescence, replicate 2: 85040; activity call: inactive

For Su(var)205 [DRSC03446], what does the deposit list?
raw ATP luminescence, replicate 1: 1.07e5; raw ATP luminescence, replicate 2: 58580; activity call: inactive

With CG9083 [DRSC04625], what was measured?
raw ATP luminescence, replicate 1: 65927; raw ATP luminescence, replicate 2: 69437; activity call: inactive

Which result is listed for MED31 [DRSC12142]?
raw ATP luminescence, replicate 1: 20463; raw ATP luminescence, replicate 2: 19903; activity call: inactive

For CAH1 + Adat1 [DRSC02009], what does the deposit list?
raw ATP luminescence, replicate 1: 76510; raw ATP luminescence, replicate 2: 62793; activity call: inactive

With CG31559 [DRSC12172], what was measured?
raw ATP luminescence, replicate 1: 61207; raw ATP luminescence, replicate 2: 72060; activity call: inactive

What is on record for CG31559 [DRSC12270]?
raw ATP luminescence, replicate 1: 53660; raw ATP luminescence, replicate 2: 73907; activity call: inactive

4 entries already listed, sorted by “raw ATP luminescence, replicate 1”, ascending:
CG9083 [DRSC04625] | raw ATP luminescence, replicate 1 = 65927; raw ATP luminescence, replicate 2 = 69437; activity call = inactive
Su(var)205 [DRSC03446] | raw ATP luminescence, replicate 1 = 1.07e5; raw ATP luminescence, replicate 2 = 58580; activity call = inactive
GluRIIC [DRSC00642] | raw ATP luminescence, replicate 1 = 1.08e5; raw ATP luminescence, replicate 2 = 85040; activity call = inactive
CG11698 [DRSC14355] | raw ATP luminescence, replicate 1 = 1.75e5; raw ATP luminescence, replicate 2 = 2.19e5; activity call = inactive

Next entries:
With RpS24 [DRSC04414], what was measured?
raw ATP luminescence, replicate 1: 32880; raw ATP luminescence, replicate 2: 26537; activity call: inactive

For CG13050 [DRSC09931], what was measured?
raw ATP luminescence, replicate 1: 50457; raw ATP luminescence, replicate 2: 36397; activity call: inactive

With CG32191 [DRSC10522], what was measured?
raw ATP luminescence, replicate 1: 72317; raw ATP luminescence, replicate 2: 55833; activity call: inactive

For CG4022 [DRSC10395], what does the deposit list?
raw ATP luminescence, replicate 1: 81273; raw ATP luminescence, replicate 2: 55783; activity call: inactive

For CG9386 [DRSC16485], what does the deposit list?
raw ATP luminescence, replicate 1: 51447; raw ATP luminescence, replicate 2: 48860; activity call: inactive

What is on record for Lipt1 [DRSC05600]?
raw ATP luminescence, replicate 1: 1.12e5; raw ATP luminescence, replicate 2: 99787; activity call: inactive

For Lipt1 [DRSC07183], how do the results read?
raw ATP luminescence, replicate 1: 64263; raw ATP luminescence, replicate 2: 49690; activity call: inactive

How did the screen score skd [DRSC11898]?
raw ATP luminescence, replicate 1: 76943; raw ATP luminescence, replicate 2: 75413; activity call: inactive

With CG4372 [DRSC04466], how do the results read?
raw ATP luminescence, replicate 1: 67010; raw ATP luminescence, replicate 2: 76510; activity call: inactive

What is on record for tok [DRSC17087]?
raw ATP luminescence, replicate 1: 48763; raw ATP luminescence, replicate 2: 57707; activity call: inactive
